Assay results published in the supplement of paper PMC10849652.
The list shows a part of the results.

Amino acid sequences for entries named in this document (tags omitted). A change or cut given only in a name is not applied to a line headed by its entry.
UniProt Q7Z4H8: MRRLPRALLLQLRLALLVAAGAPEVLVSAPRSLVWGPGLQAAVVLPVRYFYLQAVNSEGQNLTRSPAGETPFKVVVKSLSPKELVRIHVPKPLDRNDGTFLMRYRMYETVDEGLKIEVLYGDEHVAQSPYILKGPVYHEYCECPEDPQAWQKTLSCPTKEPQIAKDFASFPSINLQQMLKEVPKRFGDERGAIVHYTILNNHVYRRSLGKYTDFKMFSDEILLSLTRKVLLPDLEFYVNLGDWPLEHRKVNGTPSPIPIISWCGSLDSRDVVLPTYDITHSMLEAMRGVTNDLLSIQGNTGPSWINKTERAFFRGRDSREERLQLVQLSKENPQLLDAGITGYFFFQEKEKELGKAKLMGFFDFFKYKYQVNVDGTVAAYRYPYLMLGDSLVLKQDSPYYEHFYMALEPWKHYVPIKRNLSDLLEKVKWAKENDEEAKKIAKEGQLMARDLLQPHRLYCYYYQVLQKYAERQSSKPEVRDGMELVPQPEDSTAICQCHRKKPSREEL
UniProt Q8WZA1: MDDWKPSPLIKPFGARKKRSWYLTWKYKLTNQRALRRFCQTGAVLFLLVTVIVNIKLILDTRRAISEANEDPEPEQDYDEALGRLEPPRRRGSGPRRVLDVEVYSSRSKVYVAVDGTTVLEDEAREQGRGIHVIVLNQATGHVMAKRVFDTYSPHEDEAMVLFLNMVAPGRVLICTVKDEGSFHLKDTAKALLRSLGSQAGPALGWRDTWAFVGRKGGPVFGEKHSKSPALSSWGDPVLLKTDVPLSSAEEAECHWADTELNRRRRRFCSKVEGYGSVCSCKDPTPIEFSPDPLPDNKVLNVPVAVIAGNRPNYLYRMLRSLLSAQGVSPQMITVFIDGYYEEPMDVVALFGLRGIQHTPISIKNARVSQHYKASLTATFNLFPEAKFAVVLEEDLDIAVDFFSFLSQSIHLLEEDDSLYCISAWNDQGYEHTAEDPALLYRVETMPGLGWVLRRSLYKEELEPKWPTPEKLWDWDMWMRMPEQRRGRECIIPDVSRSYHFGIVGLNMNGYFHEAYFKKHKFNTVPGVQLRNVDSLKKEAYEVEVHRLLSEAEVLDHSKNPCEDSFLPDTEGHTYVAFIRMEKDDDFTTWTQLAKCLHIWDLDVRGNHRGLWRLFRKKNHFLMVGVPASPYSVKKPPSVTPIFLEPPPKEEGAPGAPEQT
UniProt O75439: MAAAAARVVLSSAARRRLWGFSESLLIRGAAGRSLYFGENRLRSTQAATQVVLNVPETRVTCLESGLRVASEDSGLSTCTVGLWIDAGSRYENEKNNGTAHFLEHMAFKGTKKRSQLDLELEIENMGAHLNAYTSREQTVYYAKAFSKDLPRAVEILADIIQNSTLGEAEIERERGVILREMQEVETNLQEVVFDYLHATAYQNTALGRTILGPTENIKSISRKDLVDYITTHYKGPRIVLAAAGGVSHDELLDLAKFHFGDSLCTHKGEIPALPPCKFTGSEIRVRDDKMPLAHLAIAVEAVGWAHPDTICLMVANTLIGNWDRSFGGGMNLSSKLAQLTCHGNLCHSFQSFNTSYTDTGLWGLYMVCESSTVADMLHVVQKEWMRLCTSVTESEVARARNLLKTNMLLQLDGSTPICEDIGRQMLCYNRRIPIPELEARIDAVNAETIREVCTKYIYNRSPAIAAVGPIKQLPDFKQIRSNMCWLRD
UniProt Q9Y2Y1: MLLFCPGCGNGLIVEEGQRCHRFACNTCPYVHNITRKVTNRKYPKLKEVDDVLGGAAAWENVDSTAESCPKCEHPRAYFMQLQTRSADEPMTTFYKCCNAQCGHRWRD
UniProt P14859: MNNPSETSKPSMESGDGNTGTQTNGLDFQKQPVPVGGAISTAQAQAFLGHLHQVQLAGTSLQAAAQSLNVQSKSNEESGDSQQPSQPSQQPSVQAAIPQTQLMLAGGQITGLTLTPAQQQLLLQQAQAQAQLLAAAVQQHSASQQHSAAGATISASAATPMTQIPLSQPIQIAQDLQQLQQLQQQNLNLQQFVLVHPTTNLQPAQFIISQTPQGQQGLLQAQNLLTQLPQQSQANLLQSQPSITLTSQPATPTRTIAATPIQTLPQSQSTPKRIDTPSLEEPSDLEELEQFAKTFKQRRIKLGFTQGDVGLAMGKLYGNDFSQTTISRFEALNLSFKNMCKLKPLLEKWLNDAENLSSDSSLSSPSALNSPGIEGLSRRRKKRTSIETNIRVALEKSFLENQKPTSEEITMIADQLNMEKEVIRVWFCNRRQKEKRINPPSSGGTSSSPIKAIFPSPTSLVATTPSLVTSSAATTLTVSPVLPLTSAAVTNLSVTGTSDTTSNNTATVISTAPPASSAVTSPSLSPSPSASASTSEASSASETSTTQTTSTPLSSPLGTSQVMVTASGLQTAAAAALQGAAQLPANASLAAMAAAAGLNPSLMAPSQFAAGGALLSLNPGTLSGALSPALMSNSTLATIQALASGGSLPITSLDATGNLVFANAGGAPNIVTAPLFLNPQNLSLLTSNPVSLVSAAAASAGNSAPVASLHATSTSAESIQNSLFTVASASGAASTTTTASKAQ
UniProt Q9NP80: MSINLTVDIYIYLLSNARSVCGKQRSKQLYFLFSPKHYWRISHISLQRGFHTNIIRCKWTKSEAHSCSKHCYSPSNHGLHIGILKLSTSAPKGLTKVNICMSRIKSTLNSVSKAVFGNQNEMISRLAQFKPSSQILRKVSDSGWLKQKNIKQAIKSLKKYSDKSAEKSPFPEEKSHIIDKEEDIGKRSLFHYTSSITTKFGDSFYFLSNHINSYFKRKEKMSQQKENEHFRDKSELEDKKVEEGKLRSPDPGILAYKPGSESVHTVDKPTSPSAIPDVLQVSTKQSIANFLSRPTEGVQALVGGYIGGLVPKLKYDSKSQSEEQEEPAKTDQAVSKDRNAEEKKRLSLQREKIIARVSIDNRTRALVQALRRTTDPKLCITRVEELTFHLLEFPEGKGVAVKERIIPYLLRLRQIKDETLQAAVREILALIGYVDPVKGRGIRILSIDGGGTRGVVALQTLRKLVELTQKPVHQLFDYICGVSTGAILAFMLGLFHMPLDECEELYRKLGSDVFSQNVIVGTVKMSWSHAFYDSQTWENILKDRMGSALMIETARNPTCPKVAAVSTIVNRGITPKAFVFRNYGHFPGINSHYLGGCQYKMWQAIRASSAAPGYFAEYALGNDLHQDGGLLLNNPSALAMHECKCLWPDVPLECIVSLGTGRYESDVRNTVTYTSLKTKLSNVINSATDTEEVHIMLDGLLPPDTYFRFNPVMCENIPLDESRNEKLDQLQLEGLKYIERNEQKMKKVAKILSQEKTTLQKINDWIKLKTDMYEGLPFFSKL
UniProt P51805: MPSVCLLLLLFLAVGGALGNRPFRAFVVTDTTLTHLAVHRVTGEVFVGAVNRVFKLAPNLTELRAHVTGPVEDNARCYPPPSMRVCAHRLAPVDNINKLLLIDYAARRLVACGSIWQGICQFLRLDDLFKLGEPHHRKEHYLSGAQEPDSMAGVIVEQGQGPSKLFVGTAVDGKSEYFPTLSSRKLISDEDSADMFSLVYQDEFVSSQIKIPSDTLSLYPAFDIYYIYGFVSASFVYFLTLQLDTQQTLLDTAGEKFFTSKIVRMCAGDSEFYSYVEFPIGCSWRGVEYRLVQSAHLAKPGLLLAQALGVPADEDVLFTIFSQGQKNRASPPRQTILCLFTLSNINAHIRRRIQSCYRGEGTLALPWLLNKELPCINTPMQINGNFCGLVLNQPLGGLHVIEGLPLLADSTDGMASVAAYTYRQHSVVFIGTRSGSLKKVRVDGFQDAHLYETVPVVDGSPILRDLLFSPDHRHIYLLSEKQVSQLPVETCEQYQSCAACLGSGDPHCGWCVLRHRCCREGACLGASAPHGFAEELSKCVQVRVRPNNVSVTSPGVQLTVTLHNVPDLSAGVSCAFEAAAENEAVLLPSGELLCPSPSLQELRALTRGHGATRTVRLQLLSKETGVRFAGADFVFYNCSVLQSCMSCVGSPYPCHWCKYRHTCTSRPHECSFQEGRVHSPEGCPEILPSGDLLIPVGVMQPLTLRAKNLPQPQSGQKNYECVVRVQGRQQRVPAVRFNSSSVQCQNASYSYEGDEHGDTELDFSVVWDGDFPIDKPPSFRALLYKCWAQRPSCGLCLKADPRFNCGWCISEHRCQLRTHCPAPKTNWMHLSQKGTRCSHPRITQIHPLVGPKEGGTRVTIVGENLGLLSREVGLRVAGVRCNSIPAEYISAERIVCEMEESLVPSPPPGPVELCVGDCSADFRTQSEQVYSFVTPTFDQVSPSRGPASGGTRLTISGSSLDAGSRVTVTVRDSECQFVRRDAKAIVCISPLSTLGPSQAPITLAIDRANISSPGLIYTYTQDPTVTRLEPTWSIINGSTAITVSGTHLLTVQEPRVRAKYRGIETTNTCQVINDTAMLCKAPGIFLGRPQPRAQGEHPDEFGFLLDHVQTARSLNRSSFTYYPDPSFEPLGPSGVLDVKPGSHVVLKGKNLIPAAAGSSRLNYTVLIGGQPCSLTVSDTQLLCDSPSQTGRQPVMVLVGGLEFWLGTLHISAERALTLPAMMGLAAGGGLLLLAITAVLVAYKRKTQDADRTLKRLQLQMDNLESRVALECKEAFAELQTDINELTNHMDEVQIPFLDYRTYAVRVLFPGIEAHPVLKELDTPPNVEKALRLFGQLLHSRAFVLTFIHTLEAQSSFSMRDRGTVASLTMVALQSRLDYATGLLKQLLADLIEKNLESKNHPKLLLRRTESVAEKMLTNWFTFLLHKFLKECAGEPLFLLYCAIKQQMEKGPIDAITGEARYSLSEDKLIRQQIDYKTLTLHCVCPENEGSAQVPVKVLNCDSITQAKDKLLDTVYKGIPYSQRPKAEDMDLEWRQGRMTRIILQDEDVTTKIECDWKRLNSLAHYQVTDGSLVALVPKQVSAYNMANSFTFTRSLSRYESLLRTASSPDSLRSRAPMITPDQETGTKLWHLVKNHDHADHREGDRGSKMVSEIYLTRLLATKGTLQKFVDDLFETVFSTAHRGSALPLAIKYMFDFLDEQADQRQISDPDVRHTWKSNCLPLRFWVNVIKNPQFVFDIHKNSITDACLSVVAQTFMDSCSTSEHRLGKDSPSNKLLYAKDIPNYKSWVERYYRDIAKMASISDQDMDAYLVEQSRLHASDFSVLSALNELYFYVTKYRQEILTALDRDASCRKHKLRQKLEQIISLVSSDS
UniProt Q15054: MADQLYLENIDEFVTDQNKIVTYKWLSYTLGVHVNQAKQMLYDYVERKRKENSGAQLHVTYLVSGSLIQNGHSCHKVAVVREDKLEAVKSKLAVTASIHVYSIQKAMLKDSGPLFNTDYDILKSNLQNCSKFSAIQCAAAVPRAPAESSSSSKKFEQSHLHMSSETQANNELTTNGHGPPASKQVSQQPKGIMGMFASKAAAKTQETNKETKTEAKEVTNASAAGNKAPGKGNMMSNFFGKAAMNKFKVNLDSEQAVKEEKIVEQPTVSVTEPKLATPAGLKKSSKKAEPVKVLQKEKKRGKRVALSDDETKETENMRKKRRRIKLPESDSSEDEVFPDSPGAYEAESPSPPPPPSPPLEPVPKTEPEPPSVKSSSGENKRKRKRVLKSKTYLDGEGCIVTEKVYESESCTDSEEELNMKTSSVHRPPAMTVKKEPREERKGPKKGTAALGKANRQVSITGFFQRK
UniProt P62937, whole entry, looked up: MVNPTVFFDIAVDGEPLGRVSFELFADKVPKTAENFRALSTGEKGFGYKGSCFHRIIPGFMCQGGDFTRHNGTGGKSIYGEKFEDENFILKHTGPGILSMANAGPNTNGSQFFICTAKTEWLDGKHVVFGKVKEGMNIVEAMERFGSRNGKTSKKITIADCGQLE
UniProt Q9Y244: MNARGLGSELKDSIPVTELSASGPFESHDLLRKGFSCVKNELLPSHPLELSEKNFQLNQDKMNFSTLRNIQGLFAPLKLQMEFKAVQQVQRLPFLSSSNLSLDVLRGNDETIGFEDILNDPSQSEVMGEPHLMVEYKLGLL
UniProt Q9NR33: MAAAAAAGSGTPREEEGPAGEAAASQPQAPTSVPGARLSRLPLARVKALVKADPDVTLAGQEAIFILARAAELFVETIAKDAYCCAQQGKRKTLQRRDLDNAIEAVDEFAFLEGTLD
UniProt P0DPB6, whole entry, looked up: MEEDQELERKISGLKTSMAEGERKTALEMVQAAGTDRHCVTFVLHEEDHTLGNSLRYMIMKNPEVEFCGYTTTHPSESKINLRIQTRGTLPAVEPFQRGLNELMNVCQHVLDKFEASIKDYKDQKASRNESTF
UniProt P05423: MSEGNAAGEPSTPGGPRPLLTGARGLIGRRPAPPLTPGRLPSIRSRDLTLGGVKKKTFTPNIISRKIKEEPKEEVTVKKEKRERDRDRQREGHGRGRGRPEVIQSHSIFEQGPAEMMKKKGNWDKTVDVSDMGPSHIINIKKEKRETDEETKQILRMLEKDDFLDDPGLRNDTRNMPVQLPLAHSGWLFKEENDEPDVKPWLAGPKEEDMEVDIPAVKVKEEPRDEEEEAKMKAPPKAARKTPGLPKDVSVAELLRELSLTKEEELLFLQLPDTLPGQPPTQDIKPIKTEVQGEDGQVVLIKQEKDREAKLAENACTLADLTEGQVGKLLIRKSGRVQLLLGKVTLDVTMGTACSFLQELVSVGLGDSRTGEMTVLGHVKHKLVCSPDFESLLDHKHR

What follows are targets tested with C1=CC(=CC=C1C2=NC3=C(N2)C=C(C=C3)C(=O)N)OC4=CC=C(C=C4)Cl (assay: log2 fold change, soluble protein after heating vs DMSO (PISA); higher = thermal stabilisation; K562 lysate, 10 uM; active = over 0.2 and 3.5 SD of the protein, either way, in both replicates (recomputed)).
Method in brief: (§1)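 The values are log-two fold changes in thermal stability compared with solvent controls and come from duplicates. They were obtained by TMTpro 16plex LC-MS/MS, with channel sums equalised, on the supernatant after 21,000xg for 90 min. That supernatant came from crude K562 extract at 1 mg/mL protein treated with 10 μM compound for 30 min, heated for 3 min across 48°C-58°C, pooled and brought to 0.5% NP-40 at 4°C.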

log2 fold change, inactive:
PLEKHM2 (UniProt Q8IWE5) 0.014
PPAN isoform 3 (UniProt Q9NQ55) -0.008
POTEF (UniProt A5A3E0) 0.027
POLE3 (UniProt Q9NRF9) 0.009
PLGRKT (UniProt Q9HBL7) -0.09
POGLUT3 (UniProt Q7Z4H8) -0.025
POMGNT1 isoform 2 (UniProt Q8WZA1) -0.093
PMPCB (UniProt O75439) -0.016
POLR3K (UniProt Q9Y2Y1) -0.024
PNN (UniProt Q9H307) 0.118
POU2F1 isoform 6 (UniProt P14859) -0.042
PMM1 (UniProt Q92871) 0.048
PMPCA (UniProt Q10713) 0.073
POLR3C (UniProt Q9BUI4) 0.01
PNPLA8 (UniProt Q9NP80) -0.212
PLXNA3 (UniProt P51805) 0.068
POLD3 (UniProt Q15054) -0.006
PPID (UniProt Q08752) 0.008
PNISR (UniProt Q8TF01) 0.022
POP1 (UniProt Q99575) 0.004
POLR3F (UniProt Q9H1D9) 0.026
PMS2 (UniProt P54278) -0.058
POLR2H (UniProt P52434) 0.036
PPIA (UniProt P62937) 0.002
POLR3B (UniProt Q9NW08) -0.003
POGLUT1 (UniProt Q8NBL1) -0.005
POMP (UniProt Q9Y244) -0.001
PLOD1 (UniProt Q02809) -0.002
POLE4 (UniProt Q9NR33) 0.049
POLR2A, A0A590UJN4 0.015
PPFIA2 (UniProt O75334) 0.02
POLR1D (UniProt P0DPB6) 0.037
PNPT1 (UniProt Q8TCS8) 0.012
PODXL2 (UniProt Q9NZ53) 0.193
POLR3D (UniProt P05423) -0.069
POM121 (UniProt Q96HA1) -0.069
PMF1 (UniProt Q6P1K2) 0.031
PPCS (UniProt Q9HAB8) -0.009
POLR1A (UniProt O95602) 0.092

The targets below were run with C1=CC2=C(C=CC(=C2)/C=C\3/C(=O)NC(=NCC4=CC=CS4)S3)N=C1 in the same assay as above.
Method in brief: as §1

log2 fold change, inactive:
PLEKHM2 (UniProt Q8IWE5) 0.007
PPAN isoform 3 (UniProt Q9NQ55) 0.006
POTEF (UniProt A5A3E0) 0.083
POLE3 (UniProt Q9NRF9) -0.017
PLGRKT (UniProt Q9HBL7) 0.052
POGLUT3 (UniProt Q7Z4H8) 0.018
POMGNT1 isoform 2 (UniProt Q8WZA1) -0.028
PMPCB (UniProt O75439) 0.032
POLR3K (UniProt Q9Y2Y1) 0.075
PNN (UniProt Q9H307) -0.086
POU2F1 isoform 6 (UniProt P14859) 0.037
PMM1 (UniProt Q92871) 0.022
PMPCA (UniProt Q10713) 0.008
POLR3C (UniProt Q9BUI4) -0.004
PNPLA8 (UniProt Q9NP80) -0.015
PLXNA3 (UniProt P51805) -0.346
POLD3 (UniProt Q15054) -0.003
PPID (UniProt Q08752) 0.004
PNISR (UniProt Q8TF01) 0.014
POP1 (UniProt Q99575) -0.003
POLR3F (UniProt Q9H1D9) 0.027
PMS2 (UniProt P54278) -0.005
POLR2H (UniProt P52434) -0.001
PPIA (UniProt P62937) -0.025
POLR3B (UniProt Q9NW08) 0
POGLUT1 (UniProt Q8NBL1) -0.001
POMP (UniProt Q9Y244) 0.05
PLOD1 (UniProt Q02809) 0.014
POLE4 (UniProt Q9NR33) 0.02
POLR2A, A0A590UJN4 0.003
PPFIA2 (UniProt O75334) -0.004
POLR1D (UniProt P0DPB6) 0.004
PNPT1 (UniProt Q8TCS8) 0.007
PODXL2 (UniProt Q9NZ53) -0.223
POLR3D (UniProt P05423) 0.016
POM121 (UniProt Q96HA1) 0.008
PMF1 (UniProt Q6P1K2) 0.038
PPCS (UniProt Q9HAB8) -0.061
POLR1A (UniProt O95602) 0.003
